Where “and” joins values, the source holds several entries; their conditions need not be identical. Equal values may be shown once. Some of the results follow. Further columns of the screen follow, without active or inactive calls. Most of these compounds were active or inconclusive in the main read-out, so they are no random draw. The note in brackets gives the kind of curve behind each potency; many fits are weak.
Test: qHTS Assay for Modulators of Lamin A Splicing
Details: HeLa LMNA splicing GFP/RFP minigene ratio, 48 h
Procedure, shortened: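 S3 HeLa stable clones carrying a lamin A-EGFP splicing minigene plus DsRed2 were seeded at 600 cells/well in Opti-MEM with 2% FBS, pin-dosed and incubated 48 h at 37°C. Acumen cytometry (488 nm) gave the GFP/RFP total-intensity ratio.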

[1] = measured here: RFP viability control channel
[2] = measured here: GFP splicing reporter channel

Row | Structure (SMILES) | AC50 [1] | AC50 [2]
1 | O=C(Cc1ccc(NS(=O)(=O)c2ccc(F)cc2)cc1)NCc1ccccc1 | 35.5 µM [rising, single point] | 
2 | Cc1ccc(C)c(S(=O)(=O)N2CC(=O)N(CCc3ccccc3)C(=O)C2)c1 | 31.6 µM [rising, single point] | 20 µM [rising, single point]
3 | COc1ccccc1-n1c(SCC(=O)Nc2ccccc2C)nc(O)cc1=O | 6.31 µM [falling, single point] | 
4 | Cc1ccc(C)c(NC(=O)C(Sc2nc3ccc(C)cc3[nH]2)c2ccccc2)c1 (stereo unspecified) | 35.5 µM [rising, single point] | 12.6 µM [rising, single point]
5 | CC(C)NC(=O)c1noc2cc([N+](=O)[O-])ccc12 | 5.01 µM [falling, partial curve] | 2 µM [falling, full curve, poor fit]
6 | COc1ccc(OC)c(NC(=O)CSc2nnnn2-c2ccccc2F)c1 | 35.5 µM [rising, single point] | 35.5 µM [rising, single point]
7 | Cc1ccc(S(=O)(=O)N2CCOCC2)cc1C(=O)N1C(=O)c2cccc(N)c2C1=O | 35.5 µM [rising, single point] | 
8 | Cc1ccccc1OCC(=O)Nc1ccc(Cc2ccncc2)cc1 | 22.4 µM [rising, single point] | 14.1 µM [rising, single point]
9 | COc1ccc(CCNC(=O)C2CC(=O)N(c3ccc(Br)cc3)C2)cc1OC (stereo unspecified) |  | 0.00447 µM [rising, full curve, poor fit]
10 | CCS(=O)(=O)Nc1ccc(-c2cc(-c3ccccc3)c3cc(C)ccc3n2)cc1 |  | 17.8 µM [falling, single point]
11 | CC(C)(C)c1ccc(/C=N/OCC(=O)NCc2ccccc2)cc1 | 17.8 µM [rising, single point] | 
12 | COc1c(O[C@H]2O[C@@H](CO)[C@@H](O)[C@@H](O)[C@@H]2O)cc2c(c1OC)-c1ccc(SC)c(=O)cc1[C@H](NC(C)=O)CC2 | 5.01 µM [falling, single point] | 1.41 µM [falling, single point]
13 | CC1=C(C(=O)OCc2ccccc2)C(c2ccc(C)o2)C2=C(CCCC2=O)N1 (stereo unspecified) | 31.6 µM [rising, single point] | 
14 | CN1Cc2c(N)cccc2C(c2ccccc2)C1 (stereo unspecified) | 0.00316 µM [falling, full curve, poor fit] | 35.5 µM [falling, partial curve, poor fit]
15 | COc1cc(CN2CC(=O)N(c3ccc(C)cc3)C2=S)cc(OC)c1OC | 28.2 µM [rising, single point] | 
16 | N#Cc1nc(-c2ccco2)oc1NCc1ccco1 | 15.8 µM [rising, partial curve, poor fit] | 
17 | C[C@]12C[C@H](O)C3[C@@H](CCC4=CC(=O)CC[C@@]43C)[C@@H]1CC[C@@H]2C(=O)CO (stereo partly specified) |  | 7.94 µM [rising, partial curve]
18 | CCCC(C)NC(=O)c1ccc2[nH]c3c(c2c1)CC(C)CC3 (stereo unspecified) | 10 µM [rising, partial curve, poor fit] | 11.2 µM [rising, single point]

Entries 3–4, reprinted for reference:
Row | Structure (SMILES) | AC50 [1] | AC50 [2]
3 | COc1ccccc1-n1c(SCC(=O)Nc2ccccc2C)nc(O)cc1=O | 6.31 µM [falling, single point] | 
4 | Cc1ccc(C)c(NC(=O)C(Sc2nc3ccc(C)cc3[nH]2)c2ccccc2)c1 (stereo unspecified) | 35.5 µM [rising, single point] | 12.6 µM [rising, single point]

Next entries

Row | Structure (SMILES) | AC50 [1] | AC50 [2]
19 | CCOC(=O)Cn1c(-c2nonc2NC(=O)c2ccccc2F)nc2ccccc21 | 2.24 µM [rising, full curve] | 0.398 µM [falling, partial curve, poor fit]
20 | C=CCN1C(=O)CN=C1Nc1cc(C)cc(C)c1 |  | 3.55 µM [rising, partial curve]
21 | CN1C2=NCCN2C(=O)c2cc(Cl)ccc21 |  | 0.141 µM [rising, full curve, poor fit]
22 | CC(C)n1c(=NC(=O)c2ccco2)c(C#N)cc2c(=O)n3ccccc3cc21 | 35.5 µM [falling, single point] | 
23 | CCOC(=O)C1CCN(c2ncnc3c2c(-c2ccccc2)cn3-c2ccc(C)c(Cl)c2)CC1 |  | 0.0141 µM [falling, full curve, poor fit]
24 | O=c1[nH]c(SCc2cccc(Cl)c2)nc2c1CCCC2 | 14.1 µM [rising, single point] | 
25 | COCCNc1nc(SCC(=O)N2CCN(c3ccccc3OC)CC2)nc2ccccc12 |  | 35.5 µM [rising, single point]
26 | O=C1c2ccccc2C(Nc2ccc(S(=O)(=O)N3CCCCCC3)cc2)N1Cc1ccco1 (stereo unspecified) | 35.5 µM [rising, single point] | 
27 | CCOC(=O)Cn1c2c(c(=N)c3c1CCC3)CCCC2 | 12.6 µM [rising, single point] | 
28 | O=C1NC(=O)C(c2ccccc2)(c2ccccc2)N1 | 22.4 µM [falling, partial curve, poor fit] and 0.794 nM [rising, full curve, poor fit] | 35.5 µM [rising, single point]
29 | CCOC(=O)c1c(NC(=O)CSc2nc3cc(Cl)ccc3s2)sc(C(C)=O)c1C | 12.6 µM [rising, partial curve] | 8.91 µM [rising, partial curve]
30 | O=S(=O)(c1ccccc1Cl)N1CCCC1c1nc(-c2cccc(Cl)c2)no1 (stereo unspecified) | 31.6 µM [rising, single point] | 
31 | COc1ccc(CCNC(=O)C/C(C)=N/NC(=O)C23CC4CC(CC(C4)C2)C3)cc1OC | 35.5 µM [falling, single point] | 
32 | C=CCN1c2ccccc2[C@]23C[C@@H](C(=O)OC)N(S(=O)(=O)c4ccc(C#N)cc4)C2=NC(C(=O)OC)=C(C(=O)OC)[C@H]13 |  | 1.26 µM [rising, partial curve]
33 | Cc1ccccc1C(=O)c1c[nH]c(C(=O)NCC2CCCO2)c1 (stereo unspecified) |  | 7.94 µM [falling, partial curve]
34 | COc1ccccc1CNC(=O)c1cc2cc(S(=O)(=O)N3CCCCC3)ccc2n1C |  | 3.16 µM [rising, single point]
35 | COC(=O)c1ccc(C2/C(=C(/O)c3ccc(OC)cc3)C(=O)C(=O)N2Cc2ccco2)cc1 (stereo unspecified) |  | 0.708 µM [rising, partial curve, poor fit]

Reference: PubChem BioAssay AID1487 (National Center for Advancing Translational Sciences (NCATS), 2009)
